Reference: publication PMC9170289
These are yes or no findings as the source states them, for the method shown. Some entries that bind do so weakly or less than the wild type.

Legend:
Assay in all cases: two-hybrid; GAL4(DB) fusion and GAL4(AD) fusion cotransformed into the wild-type tester strain GGY1::171; X-Gal colony colour on SSX plates, 30°C; pairs said to be unaffected were also tested in upf1Δ, pat1Δ, scd6Δ, edc3Δ or dcp2-N245 derivatives
[1] = molecular target: T1, Dcp2, wild-type full length (S. cerevisiae), P53550; details: remark: other sources report otherwise
T1 chain: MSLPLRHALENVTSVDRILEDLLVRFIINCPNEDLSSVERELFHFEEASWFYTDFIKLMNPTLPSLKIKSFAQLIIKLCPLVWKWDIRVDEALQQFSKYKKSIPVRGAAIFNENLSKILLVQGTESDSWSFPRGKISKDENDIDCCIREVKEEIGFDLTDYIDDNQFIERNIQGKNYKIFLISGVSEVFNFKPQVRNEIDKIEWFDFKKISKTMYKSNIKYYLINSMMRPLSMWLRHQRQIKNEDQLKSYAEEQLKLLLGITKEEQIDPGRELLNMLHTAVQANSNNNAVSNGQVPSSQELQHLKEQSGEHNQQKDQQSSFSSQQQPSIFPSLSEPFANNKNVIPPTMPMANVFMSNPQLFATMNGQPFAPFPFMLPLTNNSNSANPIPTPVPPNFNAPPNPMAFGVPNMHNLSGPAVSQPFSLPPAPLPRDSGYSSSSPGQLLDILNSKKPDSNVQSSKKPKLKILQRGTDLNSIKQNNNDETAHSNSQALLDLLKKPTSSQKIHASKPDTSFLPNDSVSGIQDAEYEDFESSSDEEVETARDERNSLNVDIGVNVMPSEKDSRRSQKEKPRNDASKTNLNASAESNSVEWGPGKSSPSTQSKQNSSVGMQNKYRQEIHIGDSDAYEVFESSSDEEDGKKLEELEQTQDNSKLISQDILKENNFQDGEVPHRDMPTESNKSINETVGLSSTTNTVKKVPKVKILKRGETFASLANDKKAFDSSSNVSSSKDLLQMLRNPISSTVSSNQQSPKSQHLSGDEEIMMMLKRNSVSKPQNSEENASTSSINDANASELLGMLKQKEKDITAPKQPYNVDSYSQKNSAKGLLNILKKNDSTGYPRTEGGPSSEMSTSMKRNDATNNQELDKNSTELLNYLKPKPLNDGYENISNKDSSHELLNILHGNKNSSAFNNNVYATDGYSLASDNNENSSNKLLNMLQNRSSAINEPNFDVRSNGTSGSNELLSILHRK

[2] = molecular target: T2, Dcp2, wild-type full length (S. cerevisiae) (UniProt P53550)
T2 sequence: T1 chain

[3] = molecular target: T3, Dhh1 (S. cerevisiae), P39517; details: remark: other sources report otherwise
T3 chain: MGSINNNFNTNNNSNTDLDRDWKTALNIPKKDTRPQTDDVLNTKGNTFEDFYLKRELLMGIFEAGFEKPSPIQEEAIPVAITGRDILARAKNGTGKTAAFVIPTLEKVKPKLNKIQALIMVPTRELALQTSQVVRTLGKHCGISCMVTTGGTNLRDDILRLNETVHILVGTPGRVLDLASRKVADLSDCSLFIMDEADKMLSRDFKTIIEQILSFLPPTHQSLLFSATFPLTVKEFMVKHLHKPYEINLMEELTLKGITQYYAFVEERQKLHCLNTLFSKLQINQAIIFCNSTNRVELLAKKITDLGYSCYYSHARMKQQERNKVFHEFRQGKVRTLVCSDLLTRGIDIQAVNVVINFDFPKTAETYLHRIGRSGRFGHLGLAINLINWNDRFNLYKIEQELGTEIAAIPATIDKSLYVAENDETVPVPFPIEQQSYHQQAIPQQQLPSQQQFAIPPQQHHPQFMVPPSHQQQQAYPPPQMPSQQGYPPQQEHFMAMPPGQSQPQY

B1: Upf1, P30771 1-971 (protein)
chain: MVGSGSHTPYDISNSPSDVNVQPATQLNSTLVEDDDVDNQLFEEAQVTETGFRSPSASDNSCAYCGIDSAKCVIKCNSCKKWFCNTKNGTSSSHIVNHLVLSHHNVVSLHPDSDLGDTVLECYNCGRKNVFLLGFVSAKSEAVVVLLCRIPCAQTKNANWDTDQWQPLIEDRQLLSWVAEQPTEEEKLKARLITPSQISKLEAKWRSNKDATINDIDAPEEQEAIPPLLLRYQDAYEYQRSYGPLIKLEADYDKQLKESQALEHISVSWSLALNNRHLASFTLSTFESNELKVAIGDEMILWYSGMQHPDWEGRGYIVRLPNSFQDTFTLELKPSKTPPPTHLTTGFTAEFIWKGTSYDRMQDALKKFAIDKKSISGYLYYKILGHQVVDISFDVPLPKEFSIPNFAQLNSSQSNAVSHVLQRPLSLIQGPPGTGKTVTSATIVYHLSKIHKDRILVCAPSNVAVDHLAAKLRDLGLKVVRLTAKSREDVESSVSNLALHNLVGRGAKGELKNLLKLKDEVGELSASDTKRFVKLVRKTEAEILNKADVVCCTCVGAGDKRLDTKFRTVLIDESTQASEPECLIPIVKGAKQVILVGDHQQLGPVILERKAADAGLKQSLFERLISLGHVPIRLEVQYRMNPYLSEFPSNMFYEGSLQNGVTIEQRTVPNSKFPWPIRGIPMMFWANYGREEISANGTSFLNRIEAMNCERIITKLFRDGVKPEQIGVITPYEGQRAYILQYMQMNGSLDKDLYIKVEVASVDAFQGREKDYIILSCVRANEQQAIGFLRDPRRLNVGLTRAKYGLVILGNPRSLARNTLWNHLLIHFREKGCLVEGTLDNLQLCTVQLVRPQPRKTERPMNAQFNVESEMGDFPKFQDFDAQSMVSFSGQIGDFGNAFVDNTELSSYINNEYWNFENFKSAFSQKQNRNEIDDRNLYQEEASHLNSNFARELQREEQKHELSKDFSNLGI
In the case of B1, the binding [1] is reported as “binds”.

B2: Pat1, P25644 1-796 (protein)
chain: MSFFGLENSGNARDGPLDFEESYKGYGEHELEENDYLNDETFGDNVQVGTDFDFGNPHSSGSSGNAIGGNGVGATARSYVAATAEGISGPRTDGTAAAGPLDLKPMESLWSTAPPPAMAPSPQSTMAPAPAPQQMAPLQPILSMQDLERQQRQMQQQFMNFHAMGHPQGLPQGPPQQQFPMQPASGQPGPSQFAPPPPPPGVNVNMNQMPMGPVQVPVQASPSPIGMSNTPSPGPVVGATKMPLQSGRRSKRDLSPEEQRRLQIRHAKVEKILKYSGLMTPRDKDFITRYQLSQIVTEDPYNEDFYFQVYKIIQRGGITSESNKGLIARAYLEHSGHRLGGRYKRTDIALQRMQSQVEKAVTVAKERPSKLKDQQAAAGNSSQDNKQANTVLGKISSTLNSKNPRRQLQIPRQQPSDPDALKDVTDSLTNVDLASSGSSSTGSSAAAVASKQRRRSSYAFNNGNGATNLNKSGGKKFILELIETVYEEILDLEANLRNGQQTDSTAMWEALHIDDSSYDVNPFISMLSFDKGIKIMPRIFNFLDKQQKLKILQKIFNELSHLQIIILSSYKTTPKPTLTQLKKVDLFQMIILKIIVSFLSNNSNFIEIMGLLLQLIRNNNVSFLTTSKIGLNLITILISRAALIKQDSSRSNILSSPEISTWNEIYDKLFTSLESKIQLIFPPREYNDHIMRLQNDKFMDEAYIWQFLASLALSGKLNHQRIIIDEVRDEIFATINEAETLQKKEKELSVLPQRSQELDTELKSIIYNKEKLYQDLNLFLNVMGLVYRDGEISELK
With B2 the binding [1] was “binds”.

B3: Edc3 (protein, UniProt P39998 1-551)
chain: MSQFVGFGVQVELKDGKLIQGKIAKATSKGLTLNDVQFGDGGKSQAFKVRASRLKDLKVLTVASQSGKRKQQRQQQQQNDYNQNRGEHIDWQDDDVSKIKQQEDFDFQRNLGMFNKKDVFAQLKQNDDILPENRLQGHNRKQTQLQQNNYQNDELVIPDAKKDSWNKISSRNEQSTHQSQPQQDAQDDLVLEDDEHEYDVDDIDDPKYLPITQSLNITHLIHSATNSPSINDKTKGTVINDKDQVLAKLGQMIISQSRSNSTSLPAANKQTTIRSKNTKQNIPMATPVQLLEMESITSEFFSINSAGLLENFAVNASFFLKQKLGGRARLRLQNSNPEPLVVILASDSNRSGAKALALGRHLCQTGHIRVITLFTCSQNELQDSMVKKQTDIYKKCGGKIVNSVSSLESAMETLNSPVEIVIDAMQGYDCTLSDLAGTSEVIESRIKSMISWCNKQRGSTKVWSLDIPNGFDAGSGMPDIFFSDRIEATGIICSGWPLIAINNLIANLPSLEDAVLIDIGIPQGAYSQRTSLRKFQNCDLFVTDGSLLLDL
With B3 the binding [2] was “binds”.

B4: Scd6, P45978 1-349 (protein)
chain: MSQYIGKTISLISVTDNRYVGLLEDIDSEKGTVTLKEVRCFGTEGRKNWGPEEIYPNPTVYNSVKFNGSEVKDLSILDANINDIQPVVPQMMPPASQFPPQQAQSPPQAQAQAHVQTNPQVPKPESNVPAAVAGYGVYTPTSTETATASMNDKSTPQDTNVNSQSRERGKNGENEPKYQRNKNRSSNRPPQSNRNFKVDIPNEDFDFQSNNAKFTKGDSTDVEKEKELESAVHKQDESDEQFYNKKSSFFDTISTSTETNTNMRWQEEKMLNVDTFGQASARPRFHSRGLGRGRGNYRGNRGNRGRGGQRGNYQNRNNYQNDSGAYQNQNDSYSRPANQFSQPPSNVEF
B4 was tested, and the binding [3] was “no binding”.
